## Library screening results

Measurements from “University of Dundee, Small-Polar-MMV Screening Library” (2021), ChEMBL document CHEMBL3988442.

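Viability assay of Plasmodium falciparum sporozoites; the read-out is not stated. The concentration is filed as 10 mM, unlikely as a test dose, so the dose is not known. Higher reads as lower viability (inferred: compounds with an IC50 in retests scored well above the rest). Strong results were mostly tested again. About 34,000 compounds were tested under these conditions; 0.84% (about 280) showed 50% or more at least once.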

Values are the deposited “Percent Effect”, in %.
The controls that fix the scale are not given in the record; negative values are as filed.
The compounds are a random part of those screened.
Two or more numbers in one place are separate tests of the same structure; such repeats can differ widely.

Compound | percent effect
CCNc1nc2c(s1)C(=O)CN(C(=O)NCc1ccccc1)C2 | 7.197
NC(=O)C1(c2cnccn2)CCCN1Cc1ccc(Cl)cc1 (centres unmarked) | 2.132
Cc1nc(N2CCN(C)CC2)ncc1C(=O)N1CCCCC1 | 7.073
COc1cc(CNCC(O)c2ccc(C)cc2)cc2c1OCO2.Cl (centres unmarked) | 18.21
Cn1ccc(C(=O)N2CCC(c3cc(CCO)n(C)n3)C2)n1 (centres unmarked) | 12.58
Cc1cnn(CC2CN(Cc3nc(C)c4ccccc4n3)CCO2)c1 (centres unmarked) | 19.29
Cc1cnn(CC2CCCCN2Cc2nnc(-c3ccco3)o2)c1 (centres unmarked) | 17.76
CN(C)C(=O)CN1CCCC(CCCc2ccccn2)(C(N)=O)C1 (centres unmarked) | -2.748
CN(C)c1ccc(CNC(=O)NCCc2cn3ccccc3n2)cn1 | 6.515
Cc1cnn(CC2CCCCN2C(=O)c2cccc(C(N)=O)c2)c1 (centres unmarked) | 6.224
O=C(O)C(F)(F)F.[H][C@@]12CCN(Cc3ccc(C)o3)C[C@]1(C(=O)N1CCCO1)CCO2 | -16.62 & 5.902 & -19.85
CN(CC(=O)N1CCc2[nH]c3ccccc3c2C1)CC1OCCO1 | 5.769
Cc1ccc(CCC(=O)N2CCCC(n3cncn3)C2)c(C)c1 (centres unmarked) | -2.451
Cc1nc2cc(=O)[nH]n2c(C)c1CC(=O)NCc1ccoc1 | 4.767
CN(C)C(=O)c1cnc2n1CCN(Cc1cccc(C#N)c1)C2.O=C(O)C(F)(F)F | -11.08
O=C(O)C(F)(F)F.O=C(O)C(F)(F)F.[H][C@@]12COC[C@@H](CC(=O)NCc3cccnc3)[C@]1([H])CN(CCOC)C2 | -56.93
O=C(O)C(F)(F)F.[H][C@]12C[C@@H](CN(C)C)N(C(C)=O)[C@@]1([H])CCN(C(=O)c1cccc(F)c1)C2 | 3.921
Cc1ccc(C(=O)NC(C)Cn2cccn2)c(=O)[nH]1 (centres unmarked) | 11.5
O=C1NCc2ccc(NC(=O)C3CCCN3c3nccs3)cc21 (centres unmarked) | 13.2
CN1CCCC1c1cncc(C(=O)NCc2ccccc2)n1 (centres unmarked) | 6.006
CC(C)N(C)S(=O)(=O)c1ccc2c(c1)CCN(C(=O)c1ccccn1)C2 | 5.372
O=C1CCOC[C@]2(CN(Cc3ccccc3)C[C@H]2c2cccnc2)N1 | 13.19
c1ccc(OCCN2CCc3c(ncn3C3CC3)C2)cc1 | 1.314
Cc1c[nH]nc1C1CCCN1Cc1ncc[nH]1.O=CO (centres unmarked) | 11.49
Cc1ccccc1C1(CNC(=O)N2CCC(CC(N)=O)CC2)CC1 | -4.114
O=C(O)C(F)(F)F.[H][C@@]12CC(=O)N(CC(C)C)[C@@]1([H])CCN2Cc1cccc(C#N)c1 | 7.99
O=C(O)C(F)(F)F.[H][C@@]12CCN(Cc3c(C)noc3C)C[C@]1(C(=O)NCCOC)CCO2 | -4.139
CCC1(c2ccc(NS(=O)(=O)c3ccc(Cl)s3)cc2)CCC(=O)NC1=O (centres unmarked) | 12.18
CCC1CNCc2cc3c(C)ccc(C)c3nc2O1 (centres unmarked) | 16.8
COCC(=O)N1Cc2nccn2CC(Cn2ncccc2=O)C1 (centres unmarked) | 1.518
CN1CCN(c2nc(O)cc(Cc3ccccc3F)n2)CC1 | 10.12
O=S(=O)(NC1CCCOC1)c1ccc(C(F)(F)F)nc1 (centres unmarked) | -10.99
CN(C)c1ncc(-c2cccc(F)c2)c(C2CNCCO2)n1.Cl (centres unmarked) | 2.337
[H][C@@]12C[C@H](C(=O)N(C)C)[C@@]([H])(CN(c3ncc(CC)cn3)C1)O2 | -0.1082
CO[C@@H]1CCN(S(=O)(=O)c2cccs2)[C@H]1Cc1cccnc1.O=C(O)C(F)(F)F | -4.545
Cc1cnn(CC2CCCN2C(=O)c2ccc(C(N)=O)cn2)c1 (centres unmarked) | 11.59
COCCCNC(=O)c1cn(C(C)(C)C)c2ncccc12 | -1.908
CSc1ccc(CNC(c2ccc(F)cc2)c2nccn2C)cc1 (centres unmarked) | 6.166
Cc1noc(C)c1CC(=O)N1CCCC(Cn2ccnc2C)C1 (centres unmarked) | -7.52
CN(C)c1ncccc1C(=O)N1CCN(C2=NCC(C)(C)S2)CC1 | -2.743
O=C(COCCc1ccccc1)N1CCCC(n2cncn2)C1 (centres unmarked) | -0.7727
CN(CCc1ccccn1)C(=O)c1cccs1.Cl | -9.49
Cc1nnc2n1CCN(CCCS(=O)(=O)c1ccccc1)C2 | 9.154
Cn1cc(C2CC(=O)NC23CCN(c2ncc(F)cn2)CC3)cn1 (centres unmarked) | 7.251
COc1cc2cc3c(nc2cc1OC)OCCN(CC1CC1)C3 | -7.181
O=C([C@@H]1CCCN1c1nccc(Nc2ccccc2)n1)N1CCCCC1 | 6.526
Cc1csc(NC(=O)CN2CCC(c3ccnn3CCO)CC2)n1 | 4.359
O=C(O)C(F)(F)F.[H][C@@]12CCN(c3cnccn3)C[C@]1([H])CN(C(=O)C1CCCC1)C2 | 10.83
[H][C@]12CCN(c3cc(C)ccn3)C[C@]1(COC)CC[C@@H](N1CCOCC1)C2 | 7.607
Cc1n[nH]c(C)c1-c1nccnc1CC1CCCN(C)C1 (centres unmarked) | -9.944
O=C(O)C(F)(F)F.O=C(O)C(F)(F)F.[H][C@@]12CN(CCOC)CC[C@]1([H])CN(Cc1nccn1C)C2 | -8.442
CN1CCN(C(=O)Cc2cccc(F)c2)Cc2cccnc21.O=C(O)C(F)(F)F | -8.506
[H][C@]12C[C@H](C(=O)NC)N(S(C)(=O)=O)[C@@]1([H])CN(C(=O)c1ccc(C)o1)C2 | 8.094
O=C(COc1cccnc1)N1CCCC(n2cccn2)C1 (centres unmarked) | -7.135
CC(=O)NCC(=O)N1CCN(CCN(C)C)c2ncccc2C1.O=C(O)C(F)(F)F.O=C(O)C(F)(F)F | -3.733
Cc1cnn(-c2ccc(S(=O)(=O)N(C)CC(C)(CO)CO)cc2F)c1 | 1.443
CCNC(=O)c1ccc(CNCc2c(C)nn(C)c2N(C)C)cc1 | -14.46
COc1ccc(CNC(=O)Nc2ccc(N3CCCC3)nc2)cc1O | -4.829
O=C(O)C(F)(F)F.[H][C@@]12CN(C3CCOCC3)C[C@]1([H])OCCN2Cc1c(C)noc1C | -19.43
C[C@@H]1CN(C(=O)c2ccc(C#N)nc2)C[C@@]1(O)C1CC1 | -11.18
Cn1cnnc1C1CCCN(C(=O)c2ccc3c(c2)OCCO3)C1 (centres unmarked) | 3.79
CCc1ncc(CN2CCC(O)(c3ccccc3F)CC2)cn1 | 4.126
Cc1nc(C2CCCN2CCCNS(C)(=O)=O)no1 (centres unmarked) | -4.452
CS(=O)(=O)NCC1CCCN(C(=O)COCC(F)(F)F)C1 (centres unmarked) | 5.797
Cc1ccc(CNc2ccccc2SCCC(N)=O)s1 | -25.38 & -24.82
NC(=O)c1cnc(NC2CC2)nc1CCNC(=O)Cc1ccccc1 | 2.366
[H][C@@]12CCN(Cc3ccncc3)C[C@]1([H])OCCN(c1ccccc1)C2=O | 3.114
CO[C@H]1CO[C@@]2(CCCN(C(=O)N(C)C)C2)C1 | 6.888
CCNC(=O)CN1CCCN(C(=O)C2CCCc3[nH]ncc32)CC1 (centres unmarked) | -10.84
Cn1ccc(C(=O)NCc2ccc(N3CCCCCC3)nc2)cc1=O | 11.3
CC(C)CCCNC(=O)Nc1ccc(F)c(C(N)=O)c1 | 8.178
COCC(=O)NCc1cccnc1-n1cnc2ccccc21 | -0.3308
CCOc1c(Cl)cccc1NCc1cc(C)on1 | 10.79
CC1(C)CC(N(Cc2ccccc2)Cc2c[nH]cn2)CC(C)(C)N1.O=C(O)CC(O)(CC(=O)O)C(=O)O | -1.683
NC(=O)c1ccc(N2CCCCC2)c(NC(=O)c2cncc(Br)c2)c1 | -4.58
CN(CC(=O)N1CCC(N(C)c2ccccc2)CC1)c1cnccn1 | 2.949
Cn1cc(CC2CCN(C(=O)NCc3cccc(C(N)=O)c3)C2)cn1 (centres unmarked) | 3.395

5 of the entries, repeated:

Compound	percent effect
CN(CCc1ccccn1)C(=O)c1cccs1.Cl	-9.49
O=C(O)C(F)(F)F.O=C(O)C(F)(F)F.[H][C@@]12COC[C@@H](CC(=O)NCc3cccnc3)[C@]1([H])CN(CCOC)C2	-56.93
Cc1cnn(CC2CCCN2C(=O)c2ccc(C(N)=O)cn2)c1 (centres unmarked)	11.59
O=C(COCCc1ccccc1)N1CCCC(n2cncn2)C1 (centres unmarked)	-0.7727
CCNc1nc2c(s1)C(=O)CN(C(=O)NCc1ccccc1)C2	7.197